# Measured values as given in patent US11666575B2, “Pyrazolo[1,5]pyrimidine-based compounds and methods of their use to treat viral infections” (Lexicon Pharmaceuticals, Inc., priority 2020, dated 2023).
# At least one compound was matched to its structure with a doubt left.
# System: HCoV-OC43 (Betacoronavirus 1)
# Assay type: cell-based
# Conditions: 6 days
smiles,measurement,value
CCC(CC)COC(=O)[C@H](C)N[P@](=O)(OC[C@H]1O[C@@](C#N)(c2ccc3c(N)ncnn23)[C@H](O)[C@@H]1O)Oc1ccccc1 [Remdesivir],antiviral effect against β-coronavirus OC43 in H292 cells,antiviral effect
